Paper PMC9275676
These are yes or no findings as the source states them, for the method shown. In cells and extracts the contact can be indirect. Here binding means that the protein was enriched with, or labelled near, the bait; the list need not be complete.

By UniProt entry, the sequences of proteins in these tests, tags left out.
UniProt O15550: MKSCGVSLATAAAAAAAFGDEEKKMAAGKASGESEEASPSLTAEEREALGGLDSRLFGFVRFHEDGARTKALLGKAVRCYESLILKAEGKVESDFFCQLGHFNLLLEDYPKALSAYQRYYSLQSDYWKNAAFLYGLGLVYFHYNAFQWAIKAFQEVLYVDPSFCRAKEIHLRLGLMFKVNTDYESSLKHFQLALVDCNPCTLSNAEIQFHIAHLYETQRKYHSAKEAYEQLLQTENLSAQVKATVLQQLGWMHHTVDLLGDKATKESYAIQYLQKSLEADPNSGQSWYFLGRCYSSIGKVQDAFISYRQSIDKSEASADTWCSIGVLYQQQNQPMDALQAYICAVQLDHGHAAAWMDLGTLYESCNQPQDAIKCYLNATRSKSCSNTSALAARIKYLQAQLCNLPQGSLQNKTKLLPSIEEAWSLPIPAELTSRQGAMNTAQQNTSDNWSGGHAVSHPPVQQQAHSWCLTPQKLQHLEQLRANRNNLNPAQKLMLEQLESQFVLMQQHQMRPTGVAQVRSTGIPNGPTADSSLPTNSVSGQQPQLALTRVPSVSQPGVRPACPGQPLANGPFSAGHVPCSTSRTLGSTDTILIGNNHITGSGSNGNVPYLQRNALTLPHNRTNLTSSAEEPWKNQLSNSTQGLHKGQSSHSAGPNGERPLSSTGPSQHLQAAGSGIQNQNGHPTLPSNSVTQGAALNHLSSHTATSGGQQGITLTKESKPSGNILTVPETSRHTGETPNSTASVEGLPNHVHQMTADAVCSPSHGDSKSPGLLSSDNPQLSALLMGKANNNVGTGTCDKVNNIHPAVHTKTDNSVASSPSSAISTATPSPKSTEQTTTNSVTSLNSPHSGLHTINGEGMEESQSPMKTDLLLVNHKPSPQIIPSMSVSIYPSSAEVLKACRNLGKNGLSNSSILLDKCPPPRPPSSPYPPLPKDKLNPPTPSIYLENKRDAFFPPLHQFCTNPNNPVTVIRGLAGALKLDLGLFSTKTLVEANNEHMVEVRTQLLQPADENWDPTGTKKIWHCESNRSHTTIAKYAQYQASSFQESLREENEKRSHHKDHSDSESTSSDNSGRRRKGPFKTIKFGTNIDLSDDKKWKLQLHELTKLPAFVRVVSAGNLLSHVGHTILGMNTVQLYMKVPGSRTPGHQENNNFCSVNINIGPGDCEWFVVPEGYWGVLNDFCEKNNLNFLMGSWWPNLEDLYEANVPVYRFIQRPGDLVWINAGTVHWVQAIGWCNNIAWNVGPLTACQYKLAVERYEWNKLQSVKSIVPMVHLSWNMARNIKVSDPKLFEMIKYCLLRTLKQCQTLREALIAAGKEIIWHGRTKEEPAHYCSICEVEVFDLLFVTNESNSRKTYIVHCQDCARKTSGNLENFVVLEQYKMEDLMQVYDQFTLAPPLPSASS

Target: FLAG-UTX (tetracycline-inducible HEK293 line) (UniProt O15550)
Test: affinity purification with mass spectrometry; FLAG-UTX IP from nuclear extracts of HEK293 cells, LC-MS/MS of gel bands; FLAG-tag expressing cells as control

B1: ELMSAN1 (endogenous, human cells) (protein, UniProt Q6PJG2 1-1045)
chain: MNLQAQPKAQNKRKRCLFGGQEPAPKEQPPPLQPPQQSIRVKEEQYLGHEGPGGAVSTSQPVELPPPSSLALLNSVVYGPERTSAAMLSQQVASVKWPNSVMAPGRGPERGGGGGVSDSSWQQQPGQPPPHSTWNCHSLSLYSATKGSPHPGVGVPTYYNHPEALKREKAGGPQLDRYVRPMMPQKVQLEVGRPQAPLNSFHAAKKPPNQSLPLQPFQLAFGHQVNRQVFRQGPPPPNPVAAFPPQKQQQQQQPQQQQQQQQAALPQMPLFENFYSMPQQPSQQPQDFGLQPAGPLGQSHLAHHSMAPYPFPPNPDMNPELRKALLQDSAPQPALPQVQIPFPRRSRRLSKEGILPPSALDGAGTQPGQEATGNLFLHHWPLQQPPPGSLGQPHPEALGFPLELRESQLLPDGERLAPNGREREAPAMGSEEGMRAVSTGDCGQVLRGGVIQSTRRRRRASQEANLLTLAQKAVELASLQNAKDGSGSEEKRKSVLASTTKCGVEFSEPSLATKRAREDSGMVPLIIPVSVPVRTVDPTEAAQAGGLDEDGKGPEQNPAEHKPSVIVTRRRSTRIPGTDAQAQAEDMNVKLEGEPSVRKPKQRPRPEPLIIPTKAGTFIAPPVYSNITPYQSHLRSPVRLADHPSERSFELPPYTPPPILSPVREGSGLYFNAIISTSTIPAPPPITPKSAHRTLLRTNSAEVTPPVLSVMGEATPVSIEPRINVGSRFQAEIPLMRDRALAAADPHKADLVWQPWEDLESSREKQRQVEDLLTAACSSIFPGAGTNQELALHCLHESRGDILETLNKLLLKKPLRPHNHPLATYHYTGSDQWKMAERKLFNKGIAIYKKDFFLVQKLIQTKTVAQCVEFYYTYKKQVKIGRNGTLTFGDVDTSDEKSAQEEVEVDIKTSQKFPRVPLPRRESPSEERLEPKREVKEPRKEGEEEVPEIQEKEEQEEGRERSRRAAAVKATQTLQANESASDILILRSHESNAPGSAGGQASEKPREGTGKSRRALPFSEKKKKTETFSKTQNQENTFPCKKCGR
B1 was tested, and the binding was “binds”.
